Test results taken from patent US8138357B2, “Compounds and their salts specific to the PPAR receptors and the EGF receptors and their use in the medical field” (Giuliani International Limited, priority 2005, dated 2012).
Some entries share one result that the patent states for a list of compounds.

Tested on: HT-29, HT-115 and DLD-1
Test: Colon cancer cell growth by BrdU assay, three human colon carcinoma cell lines
Format: cell-based
Conditions: 48 h
Experimental: For this purpose, three human colon carcinoma cell lines (i.e. HT-29, HT-115 and DLD-1) were used. These cell types were selected on the basis of the cyclooxigenase-2 (COX-2) expression. Indeed, HT-115 cells express a biologically active COX-2, HT-29 cells express a non-functional COX-2 isoform, and DLD-1 are COX-2-deficient cells.
HT-29 and DLD-1 cells were cultured in McCoy and RPMI1640 media respectively, supplemented with 10% fetal bovine serum (FBS), 1% penicillin/streptomycin (P/S) and 50 μg/ml gentamycin. HT-115 were cultured in DMEM medium supplemented with 15% FBS and 1% P/S. Cells were maintained in a humidified incubator at 37° C., in the presence of 5% CO2.
For cell growth assays, single-cell suspensions were plated at 2×10^3 cells/well (4×10^3 cells/well for HT115) in 96-well culture dishes in medium containing 0.5% FBS and allowed to adhere. The non-adherent cells were then removed, and fresh medium containing 0.5% FBS was added into each well. Cells were cultured in the presence or absence of the specified substances. Each substance was dissolved as a 25 mM stock solution in culture medium containing 0.5% FBS, and the pH of each stock solution was adjusted to 7.4, if necessary, with NaOH. Substances were used at a final concentration ranging from 0.5 to 10 mM. Cell proliferation was determined by measuring the incorporation of 5-bromo-2′-deoxyuridine (BrdU) into DNA using a commercially available cell proliferation kit (Roche Diagnostics™, Monza, Italy). BrdU was added to the cell cultures during the last 6 hours of incubation, and the level of BrdU-positive cells was assessed after 48 h culture by enzyme-linked immunosorbent assay (ELISA).
Optical density (OD) was determined at 450 nm using an ELISA reader. Experiments were performed in triplicate and the results are reported as the mean±standard deviation (SD).

Compound | concentration at which the anti-mitogenic effect was observed [mM]
Nc1cc2c(c(C(=O)O)c1)OCC2 [compound 17, 5-amino-2,3-dihydrobenzofuran-7-carboxylic acid] | ≥ 2.5
CCOc1ccc(N)cc1C(=O)NO [compound 26, 5-amino-2-ethoxy-N-hydroxybenzamide] | ≥ 2.5
CC(C)N(c1ccc(O)c(C(=O)O)c1)C(C)C [compound 38, 5-diisopropylaminosalicylic acid] | ≥ 2.5
